Series [1] deals with IS2 OrfAB-GFP transposase fusion. Put plainly: EMSA. As to conditions: 80 nM protein, 2 nM DNA, 20 mM Tris-Cl pH 8.0, 1 mM EDTA, 1.0 ug/mL calf thymus DNA, 30 min at room temperature (20 C), 5% native PAGE at 4 C, recombinant protein, protein details: C-terminal GFP, 6xHis (Ni-NTA purified).
The test system is the same in series [2]. Put plainly: hydroxyl radical footprinting. As to conditions: 225.7 nM protein, 20 mM Tris-Cl pH 8.0, 1 mM EDTA, 1.0 ug/mL calf thymus DNA, 30 min at room temperature (20 C), 5% native PAGE at 4 C, recombinant protein, protein details: C-terminal GFP, 6xHis (Ni-NTA purified).
[3] abbreviates: label: 32P, top 5' end or bottom 3' end (ddA).

From article PMC3299598 come the findings set out here.

For at least one entry, the source does not settle the construct or the ends of the probe.

For “GGTACCCGGGGATCCTTAAGTGATAACAGATGTCTGGAAATATAGGGGCAAATCCA / CTAGACTGGCCCCCTGAATCTCCAGACAACCAATATCACTTAAATAAGTTATAGTCTT / AAGACTATAACTTATTTAAGTGATATTGGTTGTCTGGAGATTCAGGGGGCCAGTCTAGTGGATTTGCCCCTATATTTCCAGACATCTGTTATCACTTAAGGATCCCCGGGTACC [MJpc (precleaved minicircle junction, 114-mer)]”, the binding result was “binds” in series [1] (very efficient binding, nick at IRR CA-3'OH) and “binds” in series [2] (IRL cleavage domain disengaged, nick at IRR CA-3'OH).
Turning to “GGTACCCGGCCATGGTTAAGTGATAACAGATGTCTGGGAAATATAGGGGCAAATCCACTAGACTGGCCCCCTGAATCTCCAGACAACCAATATCACTTAAATAAGTTATAGTCTT / AAGACTATAACTTATTTAAGTGATATTGGTTGTCTGGAGATTCAGGGGGCCAGTCTAGTGGATTTGCCCCTATATTTCCAGACATCTGTTATCACTTAAGGATCCCCGGGTACC [MJcj (covalently joined minicircle junction, 114-mer)]”, the binding result in series [1] (very efficient binding, label: 32P-ddA at bottom 3' end for footprinting) is “binds”; in series [2] (both cleavage domains protected, label: 32P-ddA at bottom 3' end for footprinting), “binds”.
As for “ACGCGGAGTGAATTCGAGCTCTAGACTGGCCCCCTGAATCTCCAGACAACCAATATCACTTAAATAAGTGATAGTCTTA / TAAGACTATCACTTATTTAAGTGATATTGGTTGTCTGAAGATTCAGGGGGCCAGTCTAGAGCTCGAATTCCACTCCGCGT [L79 (IRL 79-mer)]”, the binding result in series [1] (setting [3]) is “binds”; in series [2] (cleavage domain only at 2, 5, 7, 39-48 strongly protected, label: 32P, top 5' end or bottom 3' end (ddA)) it was “binds”.
Take “GCTGACTTGACGGGACGGGGATCCTTAAGTGATAACAGATGTCTGGAAATATAGGGGCAAATCCAATCGACCTGCAGGCATATAAGC (double strand) [R87 (IRR 87-mer)]”: the binding result in series [1] (setting [3]) is reported as “binds”; in series [2] (cleavage domain and B element strongly protected, label: 32P, top 5' end or bottom 3' end (ddA)) it was “binds”.
